# Test results reported in the supplement of paper PMC4604168 (melanoma cell lines).
# Some of the results follow. Single values are uncertain, as repeats are few or missing.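 Cells were imaged in 1,536-well plates, and nuclei stained with an antibody against cleaved PARP were counted against all DNA-stained nuclei to give the apoptosis fraction. Screening doses were chosen to leave most cells alive, and resting and induced cleaved-PARP levels differ strongly between cell lines.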
# Test system: CBRC008 (line from a melanoma biopsy)
# Test: cleaved PARP positive nuclei fraction relative to DMSO control; melanoma cells; higher = more apoptosis
# Conditions: library dose: low library concentration; 72 h
row,SMILES,cleaved PARP positive nuclei fraction
1,"NC(=O)c1ccc(N(C(N)=O)c2c(F)cccc2F)nc1-c1ccc(F)cc1F + Cn1cc(/C=C2\C(=O)Nc3cccnc32)c2ccccc21 [GW441756] (first compound 0.4 µM, partner dose 0.4 µM)",93.7%
2,"CCN(CC)CCNC(=O)c1c(C)[nH]c(/C=C2\C(=O)Nc3ccc(F)cc32)c1C [sunitinib] + COC(=O)c1sccc1S(=O)(=O)Nc1ccc(Nc2ccccc2)cc1OC [GSK0660] (first compound 0.4 µM, partner dose 1 µM)",151%
3,"Cn1sc(=O)n(Cc2ccccc2)c1=O + CC(C)CCN1c2nc(Nc3cc(F)c(O)c(F)c3)ncc2N(C)C(=O)C1C [BID1870] (first compound 0.4 µM, partner dose 0.2 µM)",81.3%
4,"Cn1sc(=O)n(Cc2ccccc2)c1=O + COc1cc(N2CCC(N3CCN(C)CC3)CC2)ccc1Nc1ncc(Cl)c(Nc2ccccc2S(=O)(=O)C(C)C)n1 [NVP-TAE684] (first compound 0.4 µM, partner dose 0.08 µM)",31.2%
5,"NC1(c2ccc(-c3nc4ccn5c(=O)[nH]nc5c4cc3-c3ccccc3)cc2)CCC1 + CCc1ccc(CCOc2ccc(CC3SC(=O)NC3=O)cc2)nc1 [pioglitazone] (first compound 0.4 µM, partner dose 2 µM)",146%
6,"NC(=O)c1ccc(N(C(N)=O)c2c(F)cccc2F)nc1-c1ccc(F)cc1F + COc1cc(N2CCC(N3CCN(C)CC3)CC2)ccc1Nc1ncc(Cl)c(Nc2ccccc2S(=O)(=O)C(C)C)n1 [NVP-TAE684] (first compound 0.4 µM, partner dose 0.08 µM)",36.9%
